Test: Radioenzymatic assay of plasma normetanephrine in supine normotensives and patients with pheochromocytoma
Set-up: species or system human
Settings: pheochromocytoma vs normotensives

## COc1cc(C(O)CN)ccc1O (stereo not shown) [Normetanephrine, normetanephrine]
  Plasma normetanephrine in pheochromocytoma patients relative to normotensives: ≥ 30 fold

— patent US4591551A, “Radioenzymatic method for assaying normetanephrine and octopamine” (University of Southern California, priority 1984, dated 1986)
